In paper PMC11294482:
These are yes or no findings as the source states them, for the method shown. Binding seen in cells or lysates may run through a third protein. These calls come from enrichment with a bait or labelling near it, and not all partners need be listed.

Amino acid sequences for entries named in this document (tags omitted).
UniProt P08670: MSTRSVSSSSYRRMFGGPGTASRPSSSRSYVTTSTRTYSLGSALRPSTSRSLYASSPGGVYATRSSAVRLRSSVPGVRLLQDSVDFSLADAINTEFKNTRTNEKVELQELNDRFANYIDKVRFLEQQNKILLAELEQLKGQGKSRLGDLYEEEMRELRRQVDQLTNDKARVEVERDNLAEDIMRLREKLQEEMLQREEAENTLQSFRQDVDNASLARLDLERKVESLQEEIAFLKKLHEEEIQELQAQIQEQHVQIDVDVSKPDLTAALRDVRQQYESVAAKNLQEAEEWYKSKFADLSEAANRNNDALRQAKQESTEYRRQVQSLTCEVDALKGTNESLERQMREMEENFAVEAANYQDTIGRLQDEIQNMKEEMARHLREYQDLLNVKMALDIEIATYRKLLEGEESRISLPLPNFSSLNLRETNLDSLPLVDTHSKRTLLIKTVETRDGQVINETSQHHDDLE

Target: T1, XRCC2 (human (endogenous in A549)) (UniProt O43543)
T1 sequence: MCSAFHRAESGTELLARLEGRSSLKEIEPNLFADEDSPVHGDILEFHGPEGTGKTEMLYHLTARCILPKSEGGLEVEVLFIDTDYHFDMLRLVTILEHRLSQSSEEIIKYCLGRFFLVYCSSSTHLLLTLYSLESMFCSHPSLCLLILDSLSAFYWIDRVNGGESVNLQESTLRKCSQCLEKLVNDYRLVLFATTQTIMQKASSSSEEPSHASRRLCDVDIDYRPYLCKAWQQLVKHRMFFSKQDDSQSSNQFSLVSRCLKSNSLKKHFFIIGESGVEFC
Experiment: affinity purification with mass spectrometry; tandem affinity purification / IP capturing XRCC2 interacting proteins, gel with silver nitrate staining, differential bands cut out, LC-MS/MS

## vimentin (from UniProt P08670 1-466)
  binding: binds
